# Results published in PubChem BioAssay AID1508600 (Functional Genomics Laboratory (NCATS/FGL), 2020).
# The campaign covered roughly 53,000 sequences. About 3,700 (7%) were called active.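 The calls were made as follows: active = gene knockdowns whose robust z-score for IL-1 alpha signal is at least 2 or at most -2, so actives lie on both sides; inactive = the rest.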 Some of the results follow.
# Test: Components of the Cytosolic LPS Sensing Pathway: Gene Identification via Genome-wide siRNA Screen;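 also: robust z of the log signal after scaling to non-targeting control siRNA wells of the plate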
# Details: RAW264.7 macrophages, IL-1a HTRF, actives lie on both sides, screened at 100 nM (by protocol), cells primed 5 h with Pam3CSK4 first
# Procedure, shortened: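 IL-1a HTRF of supernatants after 24 hour LipidA transfection of Pam3CSK4-primed (5 hours) RAW264.7 cells, 48h post-siRNA transfection (100 nM). Scores: percent of plate negative-control median, then log-based robust z-score.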
row,Sequence,z-score
1,GGUGAUCUACUACAGGAAUTT against Fcer1a,inactive: -0.434
2,GCUAAGAAGCAGACUUCAUTT against Washc2,inactive: 1.35
3,CCCUAGUCUCUCUUCAAUCTT against Prss2,inactive: 1.04
4,GGGAGAGGCAACCUGUAUCTT against Chchd1,inactive: -0.193
5,GGACAUCUUCAUUUACAGATT against Golga4,inactive: -0.0101
6,GGUUAUCAUCUUGUGAAAATT against Srpk1,inactive: -0.628
7,GGUCAGAAGAGUUUGCUAATT against Sgms2,inactive: 0.552
8,GGUAUGUACUACAAACAAUTT against Pigl,inactive: -0.561
9,GGCUUCUUUCUCGGCAAGATT against Ydjc,inactive: 1.34
10,GGCAGUAAGGCUCCAAUCUTT against Tcp10a,active: -2.1
11,GGAAUACUGAAUUUAAGGATT against Olfr1416,inactive: 1.25
12,GGCACAUUCAUAGAACAAGTT against Znrd1as,active: 2.01
13,GCCUCAACAUGAUCCCGAGTT against Ccdc172,active: -3.34
14,GGGAUCAGUGGAGUACUACTT against Ear6,inactive: 0.0427
15,CCCUAGAAUUAUAUCCUGUTT against Col4a1,inactive: -0.494
16,GGUCCAUUAUGACGGCAAATT against Zfp385b,inactive: -1.67
17,AUACAACAGCACAACUGAUTT against Ces2b,inactive: -0.636
18,GGUGGUAACUACUGACAGCTT against Aebp1,inactive: 0.388
19,CCUGUAGAUACCUCCCUACTT against Flt1,inactive: -1.25
20,CCUUUGUAUUUGACGUGUATT against Id4,inactive: 1.08
21,CCGGAUGCUGGGCUUAGAATT against Nmb,inactive: -1.14
22,GGCAAGAUAAGCUAAAUCCTT against Gpr63,inactive: -0.822

row,Sequence,z-score
1,GGCAAUGGAAGGAAUCUUCTT against Sdf2l1,inactive: -0.968
2,GGCAUGCUAAAAAUAACUGTT against Spcs1,inactive: -0.294
3,GCUAACCACCAAACCUUCUTT against Ssc5d,inactive: 0.466
4,GGCAAACCUGCUUCUGCUATT against Prss52,inactive: -1.27
5,GGAAGCAAUUUUUUACUCATT against Itm2a,inactive: 0.247
6,UUCAUGUAGGUUUAUUAUUTT against Olfr194,inactive: 0.29
7,GGACCAGCUUUUCAACAUUTT against F8,inactive: 0.141
8,CCGUCUGGUACAACAUGAUTT against Ccdc50,inactive: -0.497
9,CGACUACCUGCUACAUGGCTT against Adipor1,inactive: -1.67
10,GGACAUGUUCUCAUUUACATT against Zfp473,inactive: -1.23
11,CCGAACUUUUUCAACAAAGTT against Eif4g2,inactive: -0.69
12,GGUGCGCUGAGAAAACUGATT against Olfr1402,inactive: 1.84
13,GGUCCUUGCCACUAAGCCUTT against Gtf2h5,inactive: 0.148
14,GGAGCUCUGGGACAAAUUCTT against Tbx20,inactive: 1.34
15,GCUAAAUCUCAAUGACCACTT against Kcnn3,inactive: -0.362
16,GAAUCUCCAGAACCUAUUUTT against Pln,inactive: -0.547
17,GCUGCAUCGAAAAACUCAGTT against Mycbp2,inactive: -0.564
18,CCCUAGUUACCAAUUCCACTT against Olfr293,active: 2.61
19,GCAGAAAAUCGCUACCCAGTT against Spice1,inactive: -0.338
20,GGGAUCAAUGUGGACAGUUTT against Icosl,inactive: 1.02
21,GGGAGAGCUGGCUAAAUGATT against Sptbn4,inactive: -0.956
22,GGUAGAGGAUCUCUCUAAATT against Fbxo44,inactive: -0.444

# Part of the list above, with tabs:
row	Sequence	z-score
4	GGGAGAGGCAACCUGUAUCTT against Chchd1	inactive: -0.193
5	GGACAUCUUCAUUUACAGATT against Golga4	inactive: -0.0101
6	GGUUAUCAUCUUGUGAAAATT against Srpk1	inactive: -0.628
7	GGUCAGAAGAGUUUGCUAATT against Sgms2	inactive: 0.552
8	GGUAUGUACUACAAACAAUTT against Pigl	inactive: -0.561
9	GGCUUCUUUCUCGGCAAGATT against Ydjc	inactive: 1.34

# Additional entries follow:

row,Sequence,z-score
1,GCUGCUGAUCAGUUCGAUCTT against B230219D22Rik,inactive: 0.947
2,GACUGAGCUUCUGUGAUGGTT against Olfr921,active: -2.5
3,GCAGGGUUUUUCCAAUAUATT against Asah2,inactive: -0.277
4,GGAAAUGGACCUUCAAAUCTT against Ppm1h,inactive: -0.22
5,GCAUCAAGCCUGGAGAUUCTT against Upf3b,inactive: 0.347
6,GGAAUCCACGACAUGCUAGTT against Pacrg,inactive: -0.193
7,GUACAAGCUGUGCAAGGUGTT against Rps4l,inactive: 0.0788
8,CGUCAAAGGAGACAGCUUUTT against Rbm15b,inactive: 1.56
9,GGCACAGUGUGGAAAAGUUTT against Cst7,inactive: -0.462
10,CCUGUACGUAUUUACAACUTT against 2410004B18Rik,inactive: -0.0606
11,GGCCUAUUUAACUAUAGUGTT against Anxa13,inactive: 0.891
12,GGGUGAUAAAUGUUUGAAUTT against Vmn1r45,inactive: 0.338
13,GGUGGAUUUUUUCUAAUACTT against Star,inactive: -0.0248
14,GCCUGAUUCAGAGUAUAAATT against Col14a1,inactive: -1.24
15,GGCAUUGCGUUGGCGAUGUTT against Coa4,inactive: 0.00971
16,GCCUGACUAUGCUAAAGCUTT against Cyp4b1,inactive: 0.0527
17,GGUACUAGGUCUGAGGGAGTT against Rdh16,inactive: 0.741
18,GGUCUGCUGUUCAAAAUCATT against Marchf10,inactive: 0.235
19,GGGUAUCUGAUUUAUAAGCTT against Mageh1,inactive: -0.371
20,GGCUAAACCAACCUCGUGCTT against Cisd1,inactive: 0.572
21,GGCUCUCAAAACUUGCUGUTT against Utp18,inactive: -0.307
22,GGUCAGCAAUGGAAGUAAUTT against Onecut1,inactive: -0.189

# Part of the list above in a different format.
row | Sequence | z-score
19 | GCAGAAAAUCGCUACCCAGTT against Spice1 | inactive: -0.338
20 | GGGAUCAAUGUGGACAGUUTT against Icosl | inactive: 1.02

# (cont.)

row,Sequence,z-score
1,CCUCAGAUUUCAACCAUAGTT against Bhlhb9,inactive: -1.24
2,AGUAUACUGGUUUCAUAACTT against Rexo5,inactive: 0.712
3,GGCAAGCACUCUUUAGACATT against Cd2bp2,inactive: 0.252
4,GGUAAAUUCCUUAACUCACTT against Utrn,inactive: 0.141
5,CGAAAAAACAUCAGACCCATT against Sulf1,inactive: -0.105
6,GGAAUUUCAGCCAGUUUCUTT against Sox5,inactive: -0.216
7,GGACCAUAGACAGAGAUUATT against Grk5,inactive: 1.13
8,GCGAUUUCCAUGUGAAUUCTT against Zfp462,inactive: 0.276
9,GGAACUGAACCACUUCAAATT against Ly6m,inactive: 0.127
10,GGACUCUUCUUGGUGAUGUTT against Slc22a18,inactive: -0.534
11,GGAAAUGGAUGAAAUGAAUTT against Acrbp,inactive: -1.63
12,GCUCUACUGCAUCAUUUUATT against Apobec1,inactive: 0.279
13,GGGAAGAAGGUUAGCUAAUTT against Trpc6,inactive: 0.34
14,GGAGUUUUUGGGUAACCUGTT against Mfge8,inactive: 1.35
15,GGCCAGGUAUAAAUAUAUATT against Dusp8,active: 4.51
16,GGAAUGAGGAAAGAGGAGATT against Rgs17,inactive: -0.613
17,GGAGGAGAAGAAACACCUGTT against Klc1,inactive: -1.73
18,GGUGCCAACUUAGAGAGCGTT against E430018J23Rik,inactive: 0.25
19,GGGUCACGCAUCCUAAGAATT against Blvrb,inactive: 0.32
20,GGAAACCUGCUCAUUGUCGTT against Olfr1233,inactive: -0.874
21,GGAAAAUCGGUUAUCAUAATT against Pde7a,inactive: -0.684
22,GGCUGUGUUCUCAAACAGCTT against St6gal1,inactive: -0.165

row,Sequence,z-score
1,GGUGCUUUGUUAUCCAUAATT against Tnfrsf26,active: -2.72
2,GGGCAAGAUGAAGAGGAUUTT against Ptdss2,inactive: 0.215
3,GCAAGUUAGGCCUUUUAAATT against Cycs,inactive: -0.197
4,GCCUUACGCACUCUCUAAATT against Col4a2,inactive: 0.0905
5,GCCCUUACAUUUUAUACUATT against Zfp93,inactive: 1.1
6,GGUGGAUUUGAACCCAAAATT against Dnajc19,inactive: -0.386
7,GCAUCUGGUAAAAGGAGCATT against Rpap1,inactive: 0.956
8,GGAAGCCAUUAUACAUGACTT against Uvrag,inactive: -0.261
9,GGUAACCUGGAUGGAGAAGTT against Mrps24,inactive: -0.466
10,GGCAGAGGCAGACAAGAUUTT against Scg3,inactive: -0.377
11,CGUAAGGAAGAUAACUUUUTT against Gatm,inactive: -0.312
12,GCACUUAUACUACUUAGUUTT against Abca8a,active: 2.4
13,UCCUGUUCGUUCCUUUCCUTT against Olfr740,inactive: 0.273
14,GGGUGCUAAAGAAUGUAUUTT against Elapor2,inactive: 0.521
15,CGUACUAUAGUAAAUCCAGTT against Clk1,active: 2.4
16,GGAGAAAUUCUUCAAUGAGTT against Syt2,inactive: -0.19
17,GCGAAGCGAAUCCUUUUUCTT against Fosl2,inactive: 0.0982
18,CGAACCUGUUGACGGAUUCTT against Wnt1,inactive: 0.563
19,GGCCAGAGCAUUUUCUUCATT against Pif1,inactive: 0.72
